Consider 3 molecules from PMC8287682.

Protein sequences, listed by entry. Tags and fused reporters are not part of them.
UniProt Q14457: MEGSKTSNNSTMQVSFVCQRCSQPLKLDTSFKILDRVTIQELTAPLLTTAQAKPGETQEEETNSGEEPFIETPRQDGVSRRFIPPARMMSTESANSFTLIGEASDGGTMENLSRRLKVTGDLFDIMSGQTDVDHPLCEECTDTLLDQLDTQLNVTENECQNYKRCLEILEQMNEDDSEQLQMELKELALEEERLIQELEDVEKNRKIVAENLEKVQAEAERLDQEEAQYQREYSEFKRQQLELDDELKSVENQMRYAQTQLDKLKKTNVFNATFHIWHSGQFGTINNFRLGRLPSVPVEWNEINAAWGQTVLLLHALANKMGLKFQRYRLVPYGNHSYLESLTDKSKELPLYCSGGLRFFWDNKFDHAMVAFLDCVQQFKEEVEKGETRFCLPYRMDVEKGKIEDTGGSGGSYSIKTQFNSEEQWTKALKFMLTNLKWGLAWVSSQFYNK
UniProt Q6ZNE5: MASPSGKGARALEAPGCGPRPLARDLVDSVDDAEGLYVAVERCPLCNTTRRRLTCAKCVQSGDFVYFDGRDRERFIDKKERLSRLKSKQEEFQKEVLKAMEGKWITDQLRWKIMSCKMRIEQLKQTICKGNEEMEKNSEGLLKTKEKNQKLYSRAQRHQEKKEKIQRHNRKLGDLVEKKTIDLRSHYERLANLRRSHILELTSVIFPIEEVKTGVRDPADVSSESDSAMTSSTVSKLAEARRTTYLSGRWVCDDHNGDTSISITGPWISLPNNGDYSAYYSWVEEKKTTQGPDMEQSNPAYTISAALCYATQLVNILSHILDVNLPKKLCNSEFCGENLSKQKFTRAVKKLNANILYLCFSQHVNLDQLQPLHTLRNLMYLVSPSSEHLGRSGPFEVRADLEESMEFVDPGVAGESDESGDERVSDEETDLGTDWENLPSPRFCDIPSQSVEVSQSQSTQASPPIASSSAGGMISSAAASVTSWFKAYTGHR

In one experiment the target is T1, GFP-CMTM7 (human) (UniProt Q96FZ5).
T1 sequence: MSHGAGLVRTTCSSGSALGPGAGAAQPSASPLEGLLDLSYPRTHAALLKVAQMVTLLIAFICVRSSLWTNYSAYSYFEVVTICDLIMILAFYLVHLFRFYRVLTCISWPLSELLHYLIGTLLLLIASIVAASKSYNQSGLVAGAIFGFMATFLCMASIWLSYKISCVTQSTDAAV
As to the kind of experiment: co-IP; anti-GFP antibody and protein-G Sepharose; lysates of control and GFP-CMTM7-overexpressing HeLa cells, lysed 48 h after transfection; 20 mM Tris-HCl pH 8.0, 150 mM NaCl, 2 mM EDTA, 10% glycerol, 0.5% Nonidet P-40, 4 °C; Western blot.

Experiment [1] deals with Beclin1 (human (endogenous in HeLa)) (UniProt Q14457). In words: co-IP; anti-Beclin1 antibody and protein-G Sepharose; lysates of control and GFP-CMTM7-overexpressing HeLa cells; 20 mM Tris-HCl pH 8.0, 150 mM NaCl, 2 mM EDTA, 10% glycerol, 0.5% Nonidet P-40, 4 °C; Western blot. In general terms: In western blotting, separated proteins are transferred to a membrane and probed.

Results are given in words; binding and its absence hold for the method and conditions named. In cells and extracts the contact can be indirect. Some entries that bind do so weakly or less than the wild type. Where a sequence is shown, tags or fusion partners need not be part of it.

Consider ATG14L (from UniProt Q6ZNE5 1-492), for which the binding entry with GFP-CMTM7 (human) is “binds”.

Regarding Beclin1 (from UniProt Q14457 1-450), in the experiment with GFP-CMTM7 (human), the binding result is given as “binds”.

B1: GFP-CMTM7 (protein, UniProt Q96FZ5 1-175)
chain: T1 sequence
For the molecule B1, the binding entry in experiment [1] was “binds”.
